## Primary screen of a compound library

The chains behind the UniProt entries cited, without tags or fusion partners.
UniProt E9BF75, entry or part of it: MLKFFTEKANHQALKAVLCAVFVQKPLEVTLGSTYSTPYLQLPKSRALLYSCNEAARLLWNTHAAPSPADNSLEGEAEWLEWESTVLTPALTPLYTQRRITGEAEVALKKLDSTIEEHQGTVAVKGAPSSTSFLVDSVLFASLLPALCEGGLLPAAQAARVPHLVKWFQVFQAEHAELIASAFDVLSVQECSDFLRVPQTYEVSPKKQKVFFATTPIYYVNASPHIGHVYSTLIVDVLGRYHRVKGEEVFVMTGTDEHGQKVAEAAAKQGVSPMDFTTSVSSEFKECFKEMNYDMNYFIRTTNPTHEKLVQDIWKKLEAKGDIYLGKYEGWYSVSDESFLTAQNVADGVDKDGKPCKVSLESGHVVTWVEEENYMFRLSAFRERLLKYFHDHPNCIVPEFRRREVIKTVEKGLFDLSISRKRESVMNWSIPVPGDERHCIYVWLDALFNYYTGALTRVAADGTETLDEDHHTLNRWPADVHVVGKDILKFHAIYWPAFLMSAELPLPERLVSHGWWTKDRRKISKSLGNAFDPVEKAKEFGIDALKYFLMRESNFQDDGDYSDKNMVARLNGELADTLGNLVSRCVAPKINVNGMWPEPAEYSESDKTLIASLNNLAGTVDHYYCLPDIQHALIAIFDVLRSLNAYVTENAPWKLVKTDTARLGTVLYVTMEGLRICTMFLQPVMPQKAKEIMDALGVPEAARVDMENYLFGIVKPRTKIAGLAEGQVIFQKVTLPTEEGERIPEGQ

Measurements from “University of Dundee, Small-Polar-MMV Screening Library” (2021), ChEMBL document CHEMBL3988442.

LdMetRS: 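Methionyl-tRNA synthetase (putative), Leishmania donovani (UniProt E9BF75). Primary screen of methionyl-tRNA synthetase; the read-out is not stated. The test concentration is not given. Values are per cent inhibition. Of about 68,000 compounds tested this way, about 24 (0.035%) reached 50% or more in at least one test.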
Mtb heat-shock: 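Assay on Mycobacterium tuberculosis, filed only as a heat shock assay from Cornell; the read-out is not stated. The concentration is filed as 10 mM, unlikely as a test dose, so the dose is not known. Higher reads as stronger inhibition (inferred: compounds with an IC50 in retests scored well above the rest). About 69,000 compounds were tested under these conditions; 1.4% (about 930) showed 50% or more at least once.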

All values are in %.
The controls that fix the scale are not given in the record; negative values are as filed.
The compounds are a random part of those screened.
A dash means the value is not listed here; it may have been measured.

Compound | LdMetRS | Mtb heat-shock
[H][C@]12CCN(C(=O)NC(C)C)CC[C@@]1([H])S(=O)(=O)N(Cc1cccc(Cl)c1)C2 | - | -9.628%
Cn1cc(CCNC(=O)CCc2ccc3c(c2)OCO3)cn1 | 7.937% | 23.12%
Cc1nc(Oc2ccccc2F)sc1C(=O)O | 12.2% | -3.155%
CCC(C)(NCC(N)=O)c1nccs1 (configuration not stated) | -4.337% | 12.24%
CCc1noc(CN(C)C(=O)COc2cccc(Cl)c2C)n1 | 14.49% | 4.069%
CCOCCn1nc(C)cc1C(=O)N1CC(C)(C)[C@@](C)(O)C1 | 18.06% | -3.352%
COc1ccccc1OC1(C(=O)O)CCN(c2ccccn2)CC1 | 9.51% | 6.975%
CS(=O)(=O)N1CCCC(Cc2cnc(Br)cn2)CC1 (configuration not stated) | 6.383% | -16.86%
O=C1[C@H]2CN(Cc3ccoc3)C[C@@H]2CCN1Cc1cccnc1 | 4.127% | -
COC(C(=O)N1CCN(Cc2noc(C)n2)CC1)c1ccccc1 (configuration not stated) | -0.7117% | 11.57%
CC(C)(C)NCc1ccc(OCc2ccc3c(c2)OCCO3)cc1 | 16.43% | -
Cc1csc2c(C3CCN(CCCOc4ccccc4)CC3)nc(C)n12 | 13.44% | 13.38%
CCc1c(C)nc(N)nc1N1CCCC(c2nc(CCOC)no2)C1 (configuration not stated) | 6.479% | -1.159%
Cc1cc(C)c(S(N)(=O)=O)cc1C(=O)NCCN1CCCCC1 | 8.009% | 21.03%
CC(C)(C)C(=O)N1CCN(C(=O)Nc2cnn(CC(F)F)c2)CC1 | 4.348% | 10.79%
O=C1[C@H]2CN(Cc3cccs3)C[C@H]2CN1c1ccsc1 | 7.333% | -
Cc1nc(Nc2nnc(C)s2)cc(C2CCCN2C2CCCC2)n1 (configuration not stated) | 15.53% | -11.05%
CCN1CC2(CCN(CCOc3ccc(F)cc3)CC2)CC1=O | 1.053% | -6.717%
Cc1nn(C)c(C)c1CC(=O)N1CCC(Nc2cccnn2)CC1 | 8.163% | -12.23%
O=C(c1ccc(Cl)o1)N1CCCC1c1nnc2n1CCCCC2 (configuration not stated) | 20.1% | -3.413%
CC(C)N(C)C(=O)C1CCC2(CCNCC2)O1 (configuration not stated) | 3.147% | -
Cc1n[nH]c(C)c1CN(C)C(C(=O)O)c1c(F)cccc1OC(C)C (configuration not stated) | 19.06% | 11.45%
O=C(Nc1cccnc1)[C@H]1CN(Cc2ccco2)C[C@H]2OCC[C@@H]12 | 16.81% | -
CCCOc1c(CNC2CCSC2)cccc1OC (configuration not stated) | 11.68% | -7.443%
COc1cccc2c1OCC(CNC(=O)CSc1nc(N)n[nH]1)C2 (configuration not stated) | 13.01% | -6.869%
CN(C)CCN1CCCC12CCN(Cc1nccn1C)CC2 | 13.51% | -
O=C(c1cccc(C2CCNC2)c1)N1CCC(N2CCC(O)CC2)CC1 (configuration not stated) | 13.91% | -14.89%
CCOc1ccccc1CN(C)C(C)c1nc(-c2cccnc2)no1 (configuration not stated) | 13.13% | -23.13%
Cc1cc(C(=O)N2CCCC2Cn2nc(C)cc2C)on1 (configuration not stated) | 17.65% | 3.616%
Cc1ccc(CN2CC[C@@H]3[C@@H](CO[C@H]3CN3CCN(C)CC3)C2)cc1 | 18.78% | -
O=C(NCC1CCCCC1)c1nnn(-c2ccc(Br)cc2)n1 | 12.95% | 8.788%
CCN(CC(=O)NC)C(=O)c1sc(Cc2ccccc2)nc1C | 5.74% | -139.7%
CN(C)c1cc(C(=O)N2CCCCCC2)ccn1 | 14.71% | 16.08%
CNC(=O)C1CN(Cc2cc(C)on2)CCN(C(C)=O)C1 (configuration not stated) | 12.77% | 16.72%
COc1cccc(-n2ccc3nc(N4CCCC4)ncc3c2=O)c1 | 7.013% | 5.944%
COCC1CN(Cc2ccc(C)s2)Cc2nnn(C)c21.O=C(O)C(F)(F)F (configuration not stated) | - | -29.28%
CCN1CC2(CCC1=O)CCN(C(=O)c1cn3cccnc3n1)CC2 | 11.54% | -19.28%
CCC1CN(CC(=O)NC2(C#N)CCCC2)CCN1CCOC (configuration not stated) | 9.409% | 0.3533%
O=C(c1cnn[nH]1)N(Cc1ccncc1)CC1CCCO1 (configuration not stated) | 9.97% | -161.2%
CN(C)C(=O)Cn1cc(C(=O)NCCc2cccc(Cl)c2Cl)nn1 | 16.57% | -13.77%
c1ccc(OCCN2CCN(c3ncnc4[nH]ccc34)CC2)cc1 | 6.422% | 4.139%
O=S(=O)(Cc1ccccc1)c1nnc(N2CCCC2)s1 | 6.835% | 26.31%
O=C(C1CCCCN1Cc1nc(-c2ccco2)no1)N1CCCC1 (configuration not stated) | 6.667% | 22.32%
CN(C(=O)CNC(=O)CC(C)(C)C)C1CCN(c2ccccn2)CC1 | 10.22% | -3.967%
NC(=O)c1nc(CN2CCOC(C(F)(F)F)C2)no1 (configuration not stated) | 3.495% | -4.372%
CN1CCN(c2cc(CNC(=O)c3cnccn3)ccn2)CC1 | 20.53% | 1.173%
Cc1cc(C)c(N(CC(O)CNCc2ccco2)S(C)(=O)=O)c(C)c1 (configuration not stated) | 17.62% | -
Cc1cc(C(=O)NC(C)c2nnn[nH]2)c2cccc(C)c2n1 (configuration not stated) | 11.81% | 9.731%
Cc1nc(C)n(CC2CCCCN2CCCN2CCCC2=O)n1 (configuration not stated) | 0.3344% | -19.93%
Cn1cc(CNCCn2cccn2)c(-c2cccnc2)n1 | 10.78% | 11.74%
CC(C)(C)C1CC(=O)Nc2c1cnn2Cc1ccco1 (configuration not stated) | 18.08% | -19.58%

Once more, the final 3:

| Compound | LdMetRS | Mtb heat-shock |
|---|---|---|
| `Cc1nc(C)n(CC2CCCCN2CCCN2CCCC2=O)n1` (configuration not stated) | 0.3344% | -19.93% |
| `Cn1cc(CNCCn2cccn2)c(-c2cccnc2)n1` | 10.78% | 11.74% |
| `CC(C)(C)C1CC(=O)Nc2c1cnn2Cc1ccco1` (configuration not stated) | 18.08% | -19.58% |